Measured values: publication doi:10.1101/2025.08.09.669463
These are yes or no findings as the source states them, for the method shown. In cells and extracts the contact can be indirect. Where a sequence is shown, tags or fusion partners need not be part of it.

Molecular target: T1, AtATG8A, recombinant, for GST pull-down (Arabidopsis thaliana) (UniProt Q8LEM4)
T1 sequence: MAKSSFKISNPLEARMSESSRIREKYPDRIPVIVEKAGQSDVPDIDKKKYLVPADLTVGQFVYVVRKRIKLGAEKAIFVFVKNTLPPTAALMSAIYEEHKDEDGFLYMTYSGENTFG
Assay: pull-down

binding: no binding
Substance: AtDCP1, recombinant (Arabidopsis thaliana)
